Experiment [1] concerns the target T1, Flag-tagged ARMC1 (F-ARMC1), wild type (UniProt Q9NVT9).
T1 sequence: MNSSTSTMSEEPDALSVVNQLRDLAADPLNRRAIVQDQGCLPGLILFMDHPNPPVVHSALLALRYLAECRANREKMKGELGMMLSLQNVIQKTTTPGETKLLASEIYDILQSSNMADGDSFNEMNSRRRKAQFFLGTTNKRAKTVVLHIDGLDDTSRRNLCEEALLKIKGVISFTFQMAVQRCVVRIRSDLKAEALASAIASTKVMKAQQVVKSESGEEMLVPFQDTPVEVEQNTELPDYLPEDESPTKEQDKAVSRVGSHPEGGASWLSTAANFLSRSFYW
The experiment in a line: affinity purification with mass spectrometry; large-scale: F-ARMC1 captured on M2 anti-Flag resin from the 1% digitonin-solubilized membrane fraction of Flp-In 293 T-REx rescue cells, washed in RNC buffer with 0.25% digitonin, eluted with 3xFlag peptide; SDS-PAGE with Coomassie staining, mass spectrometry and immunoblotting of input, flow-through and elution. On the technique in general: A western blot detects proteins with antibodies after separation by electrophoresis.

The chains behind the UniProt entries cited, without tags or fusion partners.
UniProt Q6P444: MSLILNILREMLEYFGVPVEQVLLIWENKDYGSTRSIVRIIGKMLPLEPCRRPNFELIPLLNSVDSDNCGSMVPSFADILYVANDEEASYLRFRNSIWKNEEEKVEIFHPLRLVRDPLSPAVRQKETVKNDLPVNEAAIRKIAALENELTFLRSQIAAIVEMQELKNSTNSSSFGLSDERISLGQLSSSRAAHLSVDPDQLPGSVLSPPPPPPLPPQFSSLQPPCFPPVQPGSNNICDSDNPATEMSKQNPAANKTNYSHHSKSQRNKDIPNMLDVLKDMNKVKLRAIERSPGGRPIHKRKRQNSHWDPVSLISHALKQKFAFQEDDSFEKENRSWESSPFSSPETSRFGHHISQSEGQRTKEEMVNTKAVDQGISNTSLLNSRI

Experiment [2] concerns the target T1, Flag-tagged ARMC1 (F-ARMC1), wild type. Described as above. The source holds these as a separate data set.

Like-named read-outs stand apart in the source and are kept apart here. Results are given in words; binding and its absence hold for the method and conditions named. In cells and extracts the contact can be indirect. These calls come from enrichment with a bait or labelling near it, and not all partners need be listed. Sequences can lack the tags named with a protein.

Regarding “MTFR2, endogenous (from UniProt Q6P444 1-385)”, the binding entry in experiment [1] is listed as “binds”.

B1: metaxin 1 (MTX1) (protein, UniProt Q13505 1-466)
chain: MLLGGPPRSPRSGTSPKGPWSSTGHVQFGKSPQTWPRRTRPRSPEPAAPSGVRGSTWTRRRDSPRRAGPTALSRYVGHLWMGRRPPSPEARGPVPRSSAASRARRSLASPGISPGPLTATIGGAVAGGGPRQGRAEAHKEVFPGQRVGKMAAPMELFCWSGGWGLPSVDLDSLAVLTYARFTGAPLKVHKISNPWQSPSGTLPALRTSHGEVISVPHKIITHLRKEKYNADYDLSARQGADTLAFMSLLEEKLLPVLVHTFWIDTKNYVEVTRKWYAEAMPFPLNFFLPGRMQRQYMERLQLLTGEHRPEDEEELEKELYREARECLTLLSQRLGSQKFFFGDAPASLDAFVFSYLALLLQAKLPSGKLQVHLRGLHNLCAYCTHILSLYFPWDGAEVPPQRQTPAGPETEEEPYRRRNQILSVLAGLAAMVGYALLSGIVSIQRATPARAPGTRTLGMAEEDEEE
On to B1, for which the binding result in experiment [2] is given as “binds”.
